Laboratory results taken from publication PMC6297355.
Results are given in words; binding and its absence hold for the method and conditions named. Binding seen in cells or lysates may run through a third protein. Some binding calls cover weakened binding; strength is not graded here. Where a sequence is shown, tags or fusion partners need not be part of it.

Protein sequences, listed by entry. Tags and fused reporters are not part of them. Lines headed by an entry give the natural chain unless they say otherwise; changes in a name come on top.
UniProt O95817: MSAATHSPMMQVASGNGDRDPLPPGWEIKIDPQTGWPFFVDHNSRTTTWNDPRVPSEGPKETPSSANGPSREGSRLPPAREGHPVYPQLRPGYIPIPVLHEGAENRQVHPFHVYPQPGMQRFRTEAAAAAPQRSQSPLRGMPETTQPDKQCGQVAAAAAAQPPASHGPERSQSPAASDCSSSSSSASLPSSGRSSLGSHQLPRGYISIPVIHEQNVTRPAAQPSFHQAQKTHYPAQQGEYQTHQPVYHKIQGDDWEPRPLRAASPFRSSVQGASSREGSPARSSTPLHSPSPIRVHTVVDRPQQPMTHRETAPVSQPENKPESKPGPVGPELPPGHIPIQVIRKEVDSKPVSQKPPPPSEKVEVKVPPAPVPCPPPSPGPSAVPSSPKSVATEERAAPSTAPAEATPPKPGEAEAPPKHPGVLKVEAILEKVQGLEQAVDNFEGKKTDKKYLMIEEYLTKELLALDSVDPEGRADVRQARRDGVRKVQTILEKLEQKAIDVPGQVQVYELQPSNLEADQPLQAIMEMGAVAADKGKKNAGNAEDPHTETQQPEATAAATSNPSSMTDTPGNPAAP

Assays:
FLAG-BAG3^P209L (human) = FLAG-BAG3^P209L (human) (UniProt O95817); test: co-IP; anti-FLAG (M2) magnetic beads on the soluble fraction of HEK293 lysates expressing FLAG-BAG3 variants and Myc-HSPB8, 0.4% NP-40 buffer, 4 °C; in Fig. 5f cells treated with 0.5 μM JG-98, 5 μM YM-01 or DMSO
FLAG-BAG3^WT (human) = FLAG-BAG3^WT (human) (UniProt O95817); test: as above

B1: Myc-HSPB8 (protein, UniProt Q9UJY1 1-196)
chain: MADGQMPFSCHYPSRLRRDPFRDSPLSSRLLDDGFGMDPFPDDLTASWPDWALPRLSSAWPGTLRSGMVPRGPTATARFGVPAEGRTPPPFPGEPWKVCVNVHSFKPEELMVKTKDGYVEVSGKHEEKQQEGGIVSKNFTKKIQLPAEVDPVTVFASLSPEGLLIIEAPQVPPYSTFGESSFNNELPQDSQEVTCT
FLAG-BAG3^P209L (human)
  binding: binds
FLAG-BAG3^WT (human)
  binding: binds
